Values from PubChem BioAssay AID652259 (Drosophila RNAi Screening Center, 2013)

Aim: 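Knock-downs that push a Wingless-driven reporter up or down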 (primary screen)
Cell system: Drosophila clone 8 imaginal disc epithelial cells
Reagent: long dsRNA against Drosophila genes
Treatment: pathway stimulated by co-transfected Wingless expression plasmid
Measured: 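Dual luciferase reads per well after Wingless plasmid stimulation: reporter firefly light and Renilla control light; activity is firefly divided by Renilla, a ratio not deposited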
Reading the numbers: firefly reporter light: higher = more Wg reporter light, before normalisation; Renilla control light: higher = more transfected or surviving cells
Rule for the call: 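Strong candidates differ from their plate mean by at least two out of four per-plate statistical tests; weak candidates meet just one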
Meaning of the calls: active = candidate regulator (raises or lowers reporter); inactive = not a candidate
The deposit covers about 22,000 reagents; this is a random part of those that have a named target and a result. Of all reagents, 233 (1.1%) were called active. 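Light values are raw, unnormalised plate reads; the ratio scores behind the reporter calls were not deposited.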 Not stated in the record: the amount of reagent, the time to read-out, the dose of the treatment.

predicted target | amplicon | firefly reporter light, replicate 1 | firefly reporter light, replicate 2 | Renilla control light, replicate 1 | Renilla control light, replicate 2 | call
CG31278 (GeneID 41282) | DRSC16051 | 14053 | – | 3579 | – | inactive
Ir67c (GeneID 317838) | DRSC22097 | 6.34e5 | 6.64e5 | 2.42e5 | 2.41e5 | inactive
Rassf (GeneID 42734) | DRSC15612 | 2396 | 5161 | 1408 | 2153 | inactive
CG9547 (GeneID 33911) | DRSC03260 | 14058 | – | 6108 | – | inactive
not (GeneID 40030) | DRSC11378 | 4294 | – | 1734 | – | inactive
lncRNA:CR9284 (GeneID 12798136) | DRSC03899 | 22532 | – | 12085 | – | inactive
lncRNA:CR9284 (GeneID 12798136) | DRSC04536 | 11664 | – | 3165 | – | inactive
MED18 (GeneID 31140) | DRSC18549 | 20188 | – | 11814 | – | inactive
CG30349 (GeneID 35885) | DRSC06421 | 2845 | 5504 | 676 | 2662 | inactive
CG30349 (GeneID 35885) | DRSC06839 | 1770 | 7360 | 459 | 2561 | inactive
ldd (GeneID 318066) | DRSC20558 | 14696 | – | 1258 | – | inactive
ldd (GeneID 318066) | DRSC22696 | 6.26e5 | 7.06e5 | 3.62e5 | 3.12e5 | inactive
Tm2 (GeneID 41853) | DRSC16887 | 15997 | – | 3883 | – | inactive
eIF6 (GeneID 37776) | DRSC04674 | 14547 | – | 3427 | – | inactive
SsRbeta (GeneID 39768) | DRSC11290 | 3168 | – | 1440 | – | inactive

Just “Renilla control light, replicate 1” (2 entries from above):
lncRNA:CR9284 (GeneID 12798136) [DRSC03899]	12085
lncRNA:CR9284 (GeneID 12798136) [DRSC04536]	3165
